The target of experiment [1] is T1, endogenous mouse JMJD1A phosphorylated at S265 (pS265-JMJD1A) in primary adipocytes (mouse (endogenous in primary scWAT adipocytes)) (UniProt Q6PCM1).
T1 sequence (chain, phosphoserine at 265): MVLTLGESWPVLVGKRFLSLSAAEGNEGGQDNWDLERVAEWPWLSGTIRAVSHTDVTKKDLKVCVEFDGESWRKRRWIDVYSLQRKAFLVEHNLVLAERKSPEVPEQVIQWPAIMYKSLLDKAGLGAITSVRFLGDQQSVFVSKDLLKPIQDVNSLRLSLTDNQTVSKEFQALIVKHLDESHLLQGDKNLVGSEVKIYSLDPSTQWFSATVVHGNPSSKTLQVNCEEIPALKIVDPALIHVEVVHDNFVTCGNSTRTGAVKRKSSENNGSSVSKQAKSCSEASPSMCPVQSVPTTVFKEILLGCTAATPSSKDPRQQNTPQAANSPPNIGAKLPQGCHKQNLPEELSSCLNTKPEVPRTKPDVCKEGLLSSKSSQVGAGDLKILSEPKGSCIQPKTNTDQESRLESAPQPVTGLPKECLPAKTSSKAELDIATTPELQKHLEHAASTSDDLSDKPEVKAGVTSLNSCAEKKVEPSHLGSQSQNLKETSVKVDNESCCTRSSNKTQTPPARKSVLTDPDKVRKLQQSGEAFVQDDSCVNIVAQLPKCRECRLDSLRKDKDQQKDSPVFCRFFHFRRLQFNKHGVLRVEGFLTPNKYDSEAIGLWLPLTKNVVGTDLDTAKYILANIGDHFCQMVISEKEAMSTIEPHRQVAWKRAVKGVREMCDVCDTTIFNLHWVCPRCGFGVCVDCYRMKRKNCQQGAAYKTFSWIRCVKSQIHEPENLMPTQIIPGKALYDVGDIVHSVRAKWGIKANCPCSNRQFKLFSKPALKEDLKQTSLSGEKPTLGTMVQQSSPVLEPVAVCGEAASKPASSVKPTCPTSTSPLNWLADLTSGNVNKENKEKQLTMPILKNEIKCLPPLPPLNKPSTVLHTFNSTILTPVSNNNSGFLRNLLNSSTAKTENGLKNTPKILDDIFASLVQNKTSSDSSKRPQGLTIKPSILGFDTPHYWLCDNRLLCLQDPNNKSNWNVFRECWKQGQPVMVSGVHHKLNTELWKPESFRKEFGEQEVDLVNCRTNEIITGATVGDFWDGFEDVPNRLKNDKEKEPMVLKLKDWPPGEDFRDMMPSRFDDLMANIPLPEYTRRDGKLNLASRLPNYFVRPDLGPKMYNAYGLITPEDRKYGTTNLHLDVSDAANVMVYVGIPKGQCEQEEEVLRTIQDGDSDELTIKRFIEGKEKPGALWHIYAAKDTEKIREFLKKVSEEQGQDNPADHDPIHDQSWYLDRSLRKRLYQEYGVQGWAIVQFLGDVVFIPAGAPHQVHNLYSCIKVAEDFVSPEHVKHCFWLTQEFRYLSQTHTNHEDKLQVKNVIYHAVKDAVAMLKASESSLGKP
Briefly: co-IP; primary adipocytes differentiated from SVF of WT and S265A KI/KI scWATs; the antibody used for IP was not shown (Supplementary Fig. 4e).

Sequences of proteins named here, by UniProt entry; tags and fusion partners are left off.
UniProt A2A935: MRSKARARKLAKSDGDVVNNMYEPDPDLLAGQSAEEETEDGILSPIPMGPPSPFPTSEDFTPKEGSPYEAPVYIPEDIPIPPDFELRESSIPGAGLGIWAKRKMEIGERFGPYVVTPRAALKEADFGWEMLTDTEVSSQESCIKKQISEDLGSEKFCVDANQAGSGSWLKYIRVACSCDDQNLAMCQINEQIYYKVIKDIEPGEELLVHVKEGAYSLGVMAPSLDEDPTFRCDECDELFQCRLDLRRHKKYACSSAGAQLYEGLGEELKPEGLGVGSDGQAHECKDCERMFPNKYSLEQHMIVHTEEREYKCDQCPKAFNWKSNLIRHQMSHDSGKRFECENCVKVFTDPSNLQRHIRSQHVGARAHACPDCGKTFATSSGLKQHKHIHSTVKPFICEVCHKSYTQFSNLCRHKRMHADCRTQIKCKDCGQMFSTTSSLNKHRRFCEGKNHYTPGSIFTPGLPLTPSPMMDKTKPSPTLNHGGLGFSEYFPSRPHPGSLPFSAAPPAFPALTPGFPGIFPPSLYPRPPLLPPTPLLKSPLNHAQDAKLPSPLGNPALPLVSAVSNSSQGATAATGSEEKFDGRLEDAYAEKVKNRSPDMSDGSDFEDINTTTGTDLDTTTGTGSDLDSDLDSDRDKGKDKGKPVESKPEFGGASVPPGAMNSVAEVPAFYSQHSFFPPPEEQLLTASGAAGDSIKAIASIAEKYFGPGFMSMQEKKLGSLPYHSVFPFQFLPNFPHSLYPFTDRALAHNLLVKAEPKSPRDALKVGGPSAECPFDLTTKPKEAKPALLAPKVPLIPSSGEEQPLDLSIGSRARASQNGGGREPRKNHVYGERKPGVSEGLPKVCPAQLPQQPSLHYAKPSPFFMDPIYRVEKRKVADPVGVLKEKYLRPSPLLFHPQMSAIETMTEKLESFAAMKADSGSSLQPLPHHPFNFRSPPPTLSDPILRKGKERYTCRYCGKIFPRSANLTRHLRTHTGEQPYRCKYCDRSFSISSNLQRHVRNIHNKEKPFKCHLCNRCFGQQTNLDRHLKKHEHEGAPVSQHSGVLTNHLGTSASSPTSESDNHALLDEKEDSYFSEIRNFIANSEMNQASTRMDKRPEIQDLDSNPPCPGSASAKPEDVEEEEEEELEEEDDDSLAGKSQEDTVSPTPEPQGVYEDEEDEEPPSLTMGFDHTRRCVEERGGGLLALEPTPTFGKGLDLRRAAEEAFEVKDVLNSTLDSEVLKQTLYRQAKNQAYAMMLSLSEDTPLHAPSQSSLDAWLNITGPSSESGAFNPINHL
UniProt P37238: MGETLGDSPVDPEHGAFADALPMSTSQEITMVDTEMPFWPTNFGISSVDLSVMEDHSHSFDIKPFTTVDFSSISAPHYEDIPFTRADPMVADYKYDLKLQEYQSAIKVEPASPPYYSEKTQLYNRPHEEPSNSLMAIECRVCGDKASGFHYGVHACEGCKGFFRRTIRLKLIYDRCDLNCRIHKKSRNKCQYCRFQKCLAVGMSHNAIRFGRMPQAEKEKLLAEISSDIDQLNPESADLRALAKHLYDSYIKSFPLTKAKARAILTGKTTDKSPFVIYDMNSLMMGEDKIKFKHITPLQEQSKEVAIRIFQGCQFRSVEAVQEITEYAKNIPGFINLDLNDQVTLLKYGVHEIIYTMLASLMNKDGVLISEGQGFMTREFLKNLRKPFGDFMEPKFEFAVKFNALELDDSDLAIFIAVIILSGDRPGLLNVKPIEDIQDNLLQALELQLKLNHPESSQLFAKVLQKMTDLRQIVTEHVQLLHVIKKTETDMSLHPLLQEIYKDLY

The target of experiment [2] is T2, V5-tagged S265D-hJMJD1A (phosphomimetic) (human) (UniProt Q9Y4C1).
T2 sequence: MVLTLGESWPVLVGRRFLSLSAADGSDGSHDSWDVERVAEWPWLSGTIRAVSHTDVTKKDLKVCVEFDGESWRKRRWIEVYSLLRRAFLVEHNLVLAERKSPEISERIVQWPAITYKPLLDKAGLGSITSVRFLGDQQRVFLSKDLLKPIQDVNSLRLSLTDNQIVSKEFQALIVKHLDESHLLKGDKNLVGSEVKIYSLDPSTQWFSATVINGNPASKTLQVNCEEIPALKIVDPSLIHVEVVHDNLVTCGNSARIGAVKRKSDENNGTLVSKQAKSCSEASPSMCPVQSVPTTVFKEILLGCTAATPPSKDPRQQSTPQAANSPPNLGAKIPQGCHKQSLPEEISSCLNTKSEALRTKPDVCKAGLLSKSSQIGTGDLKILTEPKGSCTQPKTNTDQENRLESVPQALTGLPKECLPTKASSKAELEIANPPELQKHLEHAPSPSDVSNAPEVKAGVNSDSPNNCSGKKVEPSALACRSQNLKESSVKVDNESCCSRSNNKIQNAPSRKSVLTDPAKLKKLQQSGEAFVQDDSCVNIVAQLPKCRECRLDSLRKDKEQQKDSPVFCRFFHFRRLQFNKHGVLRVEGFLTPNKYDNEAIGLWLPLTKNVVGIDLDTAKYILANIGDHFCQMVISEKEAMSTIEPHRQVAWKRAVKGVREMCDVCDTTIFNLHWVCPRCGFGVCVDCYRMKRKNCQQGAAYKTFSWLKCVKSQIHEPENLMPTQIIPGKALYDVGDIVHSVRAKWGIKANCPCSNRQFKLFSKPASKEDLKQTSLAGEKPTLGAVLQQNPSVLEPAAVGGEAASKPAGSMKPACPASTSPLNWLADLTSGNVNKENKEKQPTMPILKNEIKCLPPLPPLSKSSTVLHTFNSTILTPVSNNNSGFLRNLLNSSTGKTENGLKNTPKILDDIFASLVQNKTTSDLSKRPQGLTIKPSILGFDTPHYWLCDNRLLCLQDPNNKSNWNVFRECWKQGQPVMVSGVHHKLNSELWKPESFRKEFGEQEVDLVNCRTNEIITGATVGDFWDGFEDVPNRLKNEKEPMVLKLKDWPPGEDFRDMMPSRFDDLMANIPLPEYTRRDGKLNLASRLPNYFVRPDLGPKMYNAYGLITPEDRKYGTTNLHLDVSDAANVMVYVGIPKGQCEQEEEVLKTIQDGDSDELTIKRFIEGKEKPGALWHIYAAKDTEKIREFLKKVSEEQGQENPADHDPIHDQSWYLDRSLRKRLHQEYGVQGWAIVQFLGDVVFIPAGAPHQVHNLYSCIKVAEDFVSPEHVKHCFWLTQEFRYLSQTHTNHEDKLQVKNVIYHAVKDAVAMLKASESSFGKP
Kind of experiment: co-IP; IP of V5-tagged hJMJD1A (anti-V5) from whole-cell lysates of differentiated hJMJD1A-transduced im-scWATs, lysis buffer A (50 mM HEPES-KOH pH 7.9, 150 mM NaCl, 1.5 mM MgCl2, 1% NP-40), 6 h at 4 °C; immunoblots for PRDM16, PPARγ, PGC1α; cells differentiated with or without propranolol (100 nM).

This note sets out measurements from PMC5908789.

Results are given in words; binding and its absence hold for the method and conditions named. Binding seen in cells or lysates may run through a third protein. Some entries that bind do so weakly or less than the wild type. For part of these data: Sequences can lack the tags named with a protein.

Take “PRDM16 (native) (from UniProt A2A935 1-1275)”: the binding entry in experiment [1] and in experiment [2] was “binds” each time.

As for “peroxisome proliferator-activated receptor-γ (PPARγ) (from UniProt P37238 1-505)”, the binding result in experiment [1] and in experiment [2] was “binds” throughout.

B1: PGC1α (protein, UniProt O70343 1-797)
chain: MAWDMCSQDSVWSDIECAALVGEDQPLCPDLPELDLSELDVNDLDTDSFLGGLKWCSDQSEIISNQYNNEPANIFEKIDEENEANLLAVLTETLDSLPVDEDGLPSFDALTDGAVTTDNEASPSSMPDGTPPPQEAEEPSLLKKLLLAPANTQLSYNECSGLSTQNHAANHTHRIRTNPAIVKTENSWSNKAKSICQQQKPQRRPCSELLKYLTTNDDPPHTKPTENRNSSRDKCASKKKSHTQPQSQHAQAKPTTLSLPLTPESPNDPKGSPFENKTIERTLSVELSGTAGLTPPTTPPHKANQDNPFKASPKLKPSCKTVVPPPTKRARYSECSGTQGSHSTKKGPEQSELYAQLSKSSGLSRGHEERKTKRPSLRLFGDHDYCQSLNSKTDILINISQELQDSRQLDFKDASCDWQGHICSSTDSGQCYLRETLEASKQVSPCSTRKQLQDQEIRAELNKHFGHPCQAVFDDKSDKTSELRDGDFSNEQFSKLPVFINSGLAMDGLFDDSEDESDKLSYPWDGTQPYSLFDVSPSCSSFNSPCRDSVSPPKSLFSQRPQRMRSRSRSFSRHRSCSRSPYSRSRSRSPGSRSSSRSCYYYESSHYRHRTHRNSPLYVRSRSRSPYSRRPRYDSYEAYEHERLKRDEYRKEHEKRESERAKQRERQKQKAIEERRVIYVGKIRPDTTRTELRDRFEVFGEIEECTVNLRDDGDSYGFITYRYTCDAFAALENGYTLRRSNETDFELYFCGRKQFFKSNYADLDTNSDDFDPASTKSKYDSLDFDSLLKEAQRSLRR
For the molecule B1, the binding entry in experiment [1] and in experiment [2] was “binds” in each case.
